Reference: PubChem BioAssay AID504744 (Drosophila RNAi Screening Center, 2011)
The deposit covers about 23,000 reagents; below is an unselected part of those with a known target gene and a result. Of all reagents, 98 (0.43%) are marked active. 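Only hit calls are given; the phospho-dAkt signals, z-scores and hit direction were not deposited.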 No sequences are given here.

Assay: 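Identify dsRNAs that increase or decrease phospho-dAkt after insulin treatment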 (primary screen)
Cells: Drosophila Kc167 cells
Knock-down reagent: long dsRNA against Drosophila genes, 250 ng dsRNA per well of a 384-well plate
Duration: 3 days of knock-down, then overnight serum-free starvation before stimulation
Treatment: bovine insulin at 387 nM for 10 minutes after 12 h without serum
Measured: 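Per-well phospho-dAkt level from an in-cell fluorescent antibody stain, divided by a DNA-dye signal; log2 residuals turned into z-scores that take cell number into account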
Hit rule: 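Under insulin, a gene counts as a hit if the average z-score of two replicates lies above 2.5 or below -2.5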

gene knocked down	amplicon	activity call
Ir47a (GeneID 36095)	DRSC06215	inactive
CG45105 (GeneID 41932)	DRSC15002	inactive
CG45105 (GeneID 41932)	DRSC15833	inactive
Ir7c (GeneID 31692)	DRSC18007	inactive
cer (GeneID 37229)	DRSC05992	inactive
Or19a (GeneID 59214)	DRSC20684	inactive
CG15706 (GeneID 36799)	DRSC06577	inactive
CG14006 (GeneID 33802)	DRSC02338	inactive
Rif1 (GeneID 246445)	DRSC05593	inactive
CG43347 (GeneID 31991)	DRSC17982	inactive
CG43347 (GeneID 31991)	DRSC18446	inactive
CG43347 (GeneID 31991)	DRSC22656	inactive
CG43347 (GeneID 31991)	DRSC22682	inactive
vex (GeneID 32033)	DRSC19481	inactive
vex (GeneID 32033)	DRSC19651	inactive
vex (GeneID 32033)	DRSC21843	inactive
CG3770 (GeneID 37991)	DRSC04416	inactive
CG14851 (GeneID 41763)	DRSC14975	inactive
CG14851 (GeneID 41763)	DRSC21500	inactive
Prosbeta2R1 (GeneID 31511)	DRSC18154	inactive
CG11436 (GeneID 31386)	DRSC17783	inactive
CG42258 (GeneID 32196)	DRSC19741	inactive
CG42258 (GeneID 32196)	DRSC19783	inactive
CG13681 (retired record) (GeneID 38892)	DRSC08906	inactive
CG13681 (retired record) (GeneID 38892)	DRSC08907	inactive
CG13681 (retired record) (GeneID 38892)	DRSC10038	inactive
CG13681 (retired record) (GeneID 38892)	DRSC10039	inactive
CG13681 (retired record) (GeneID 38892)	DRSC10927	inactive
CG13681 (retired record) (GeneID 38892)	DRSC10929	inactive
COX3 (retired record) (GeneID 192471)	DRSC21279	inactive
CG33060 (GeneID 39807)	DRSC09939	inactive
cas (GeneID 44018)	DRSC12373	inactive
unc-13 (GeneID 43841)	DRSC17192	inactive
unc-13 (GeneID 43841)	DRSC17193	inactive
unc-13 (GeneID 43841)	DRSC17223	inactive
Acsx3 (GeneID 42354)	DRSC14309	inactive
CG42724 (GeneID 40785)	DRSC12567	inactive
CG42724 (GeneID 40785)	DRSC22275	inactive
CG7406 (GeneID 32892)	DRSC20042	inactive
ND-23 (GeneID 44207)	DRSC15526	inactive
gcm2 (GeneID 34280)	DRSC03538	inactive
icln (GeneID 36997)	DRSC07630	inactive

The list goes on (3 carried over from the part before).
gene knocked down	amplicon	activity call
ND-23 (GeneID 44207)	DRSC15526	inactive
gcm2 (GeneID 34280)	DRSC03538	inactive
icln (GeneID 36997)	DRSC07630	inactive
CG17134 (GeneID 34494)	DRSC02583	inactive
COX7C (GeneID 50246)	DRSC06831	inactive
gfzf (GeneID 40858)	DRSC12506	inactive
gfzf (GeneID 40858)	DRSC21874	inactive
PolD2 (GeneID 38228)	DRSC08147	inactive
adp (GeneID 37073)	DRSC06916	inactive
CG8172 (GeneID 35905)	DRSC07089	inactive
CG8172 (GeneID 35905)	DRSC22113	inactive
GluRS-m (GeneID 39828)	DRSC10431	inactive
CG13126 (GeneID 34323)	DRSC02222	inactive
CG6180 (GeneID 34683)	DRSC02937	inactive
CG5335 (GeneID 37140)	DRSC06931	inactive
CG14125 (GeneID 39359)	DRSC10129	inactive
Osi11 (GeneID 40765)	DRSC12282	inactive
CG16957 (GeneID 34755)	DRSC02545	inactive
Atg5 (GeneID 31666)	DRSC18112	inactive
Ada2a (GeneID 326128)	DRSC16206	inactive
Ada2a (GeneID 326128)	DRSC21598	inactive
Fntb (GeneID 41989)	DRSC15244	inactive
HGTX (GeneID 53446)	DRSC09319	inactive
HGTX (GeneID 53446)	DRSC11181	inactive
PH4alphaSG2 (GeneID 43623)	DRSC15037	inactive
Nin (GeneID 33757)	DRSC02007	inactive
bi (GeneID 31379)	DRSC18742	inactive
Eig71Ed (GeneID 39704)	DRSC11151	inactive
nuf (GeneID 39572)	DRSC11379	active
nuf (GeneID 39572)	DRSC22524	inactive
unc (GeneID 33093)	DRSC20511	inactive
Fnta (GeneID 33682)	DRSC00557	inactive
CG14932 (GeneID 34589)	DRSC02414	inactive
CG16926 (GeneID 50205)	DRSC06637	inactive
Bili (GeneID 43019)	DRSC14405	inactive
dhd (GeneID 31444)	DRSC18761	inactive
CG12531 (GeneID 32986)	DRSC19466	inactive
boi (GeneID 31229)	DRSC18425	inactive
boi (GeneID 31229)	DRSC18598	inactive
KLHL18 (GeneID 41458)	DRSC15496	inactive
CG12219 (GeneID 31572)	DRSC17829	inactive
CG11790 (GeneID 42999)	DRSC14390	inactive
Ets65A (GeneID 38700)	DRSC09968	inactive
Ets65A (GeneID 38700)	DRSC10738	inactive
Ets65A (GeneID 38700)	DRSC11164	inactive
Gr22e (GeneID 117498)	DRSC20912	inactive
CNMaR (GeneID 39127)	DRSC08992	inactive
CNMaR (GeneID 39127)	DRSC10224	inactive
CG17734 (GeneID 41359)	DRSC15256	inactive
Cyp6a8 (GeneID 36666)	DRSC07384	inactive
CG2915 (GeneID 35754)	DRSC06842	inactive
CG2812 (GeneID 37801)	DRSC04319	inactive
resilin (GeneID 36880)	DRSC05627	inactive
resilin (GeneID 36880)	DRSC06595	inactive
Icmt (GeneID 39478)	DRSC09834	inactive
galene (GeneID 38133)	DRSC08640	inactive
galene (GeneID 38133)	DRSC08641	inactive
CG33296 (GeneID 2768941)	DRSC00998	inactive
sinah (GeneID 39885)	DRSC09910	inactive
sinah (GeneID 39885)	DRSC22181	inactive
pasha (GeneID 43728)	DRSC15295	inactive
Vsx1 (GeneID 31470)	DRSC18349	inactive
Vsx1 (GeneID 31470)	DRSC18350	inactive
Vml (GeneID 5740271)	DRSC17695	inactive
Vml (GeneID 5740271)	DRSC18529	inactive
NimC3 (GeneID 48772)	DRSC03556	inactive
NimC3 (GeneID 48772)	DRSC22528	inactive
p47 (GeneID 35674)	DRSC06046	inactive
